In PubChem BioAssay AID270 (DTP/NCI, 2004):
The list is a part of this screen's results and no random one: it gathers tests that were run many times, whatever their T/C, doses with no T/C, and many T/C values between a quarter and a half above the control. Other doses and runs of a compound stand elsewhere. T/C is the treated group as % of the vehicle group. Schedule codes are those of the source, taken here to give the interval after Q, in days (D) or hours (H), and the number of doses after X. Some T/C values carry the count of animals alive at the toxicity check (mostly the fifth day); where none is given, no animal had died by that day. Some doses have a count of surviving animals in place of a T/C: the source files T/C as zero there, which appears to mark a toxic dose or a test without result, not a measured value. Some survivor counts are full or nearly so, which does not show that the dose was tolerated: survival well below the control is almost never listed, so the zero probably covers shortened survival too. Counts of survivors are from the toxicity check (mostly the fifth day) where no day follows; animals may have died later. For survival time, this PubChem deposit counts one and a half times the control or more as active, and values a quarter to a half above the control carry no call in these data; other NCI protocols may use other cut-offs.

Tested on: BDF1 mice, s.c. Lewis lung carcinoma, T/C %
Assay: NCI In Vivo Anticancer Drug Screen. Data for tumor model Lewis Lung Carcinoma (subcutaneous) in B6D2F1 (BDF1) mice
Method in brief: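 The value reflects a ratio in which the treated cohort's survival time or tumour size is compared against mice receiving only vehicle.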

[1] = T/C endpoint: median survival time, dose: 200.0 mg/kg/injection, schedule: Q01DX009 (ip), vehicle: Klucel (hydroxypropylcellulose) (HPC), higher T/C = longer survival
[2] = T/C endpoint: median survival time, dose: 50.0 mg/kg/injection, schedule: Q01DX009 (ip), vehicle: Klucel (hydroxypropylcellulose) (HPC), higher T/C = longer survival
[3] = T/C endpoint: median survival time, dose: 100.0 mg/kg/injection, schedule: Q01DX009 (ip), vehicle: Klucel (hydroxypropylcellulose) (HPC), higher T/C = longer survival
[4] = T/C endpoint: median survival time, dose: 400.0 mg/kg/injection, schedule: Q01DX009 (ip), vehicle: Klucel (hydroxypropylcellulose) (HPC), higher T/C = longer survival

SMILES: CN(C)C(=O)N(CCCl)N=O
- T/C (T/C endpoint: median survival time, dose: 25.0 mg/kg/injection, schedule: Q01DX001 (ip), vehicle: water, higher T/C = longer survival): 131 % of control
- survivor count (T/C endpoint: median survival time, dose: 50.0 mg/kg/injection, schedule: Q01DX001 (ip), vehicle: water, higher T/C = longer survival): 8 of 10

SMILES: O=P(Oc1ccccc1)(Oc1ccccc1)c1ccccc1
- survivor count (T/C endpoint: mean tumor weight, dose: 300.0 mg/kg/injection, schedule: Q01DX011 (ip), vehicle: other, higher T/C = larger tumour): 0 of 6
- survivor count (T/C endpoint: mean tumor weight, dose: 450.0 mg/kg/injection, schedule: Q01DX011 (ip), vehicle: other, higher T/C = larger tumour): 0 of 6

SMILES: C[C@]12CCC(=O)C=C1CC[C@@H]1[C@@H]2[C@@H](O)C[C@@]2(C)[C@H]1CC[C@]2(O)C(=O)CO
- survivor count (T/C endpoint: median survival time, dose: 320.0 mg/kg/injection, schedule: Q02DX009 (ip), vehicle: Klucel (hydroxypropylcellulose) (HPC), higher T/C = longer survival): 9 of 10

SMILES: CC1=CC(=O)N(NC(N)=O)C1=O
- survivor count (T/C endpoint: median survival time, dose: 100.0 mg/kg/injection, schedule: Q01DX009 (ip), vehicle: saline, higher T/C = longer survival): 7 of 10

SMILES: C=C1C(=O)OC2CC(C)C3(O)CCC(C)(CC(OC(=O)C(C)C)C12)O3 (stereo not drawn)
- survivor count [1]: 9 of 10

SMILES: Cc1ccc(NC(=O)N(CCBr)N=O)cc1
- survivor count (T/C endpoint: median survival time, dose: 3.12 mg/kg/injection, schedule: Q01DX009 (ip), vehicle: other, higher T/C = longer survival): 10 of 10
- survivor count (T/C endpoint: median survival time, dose: 12.5 mg/kg/injection, schedule: Q01DX009 (ip), vehicle: other, higher T/C = longer survival): 10 of 10

SMILES: O=NN(CCCl)C(=O)NC(CCC(=O)O)C(=O)O (stereo not drawn)
- survivor count (T/C endpoint: median survival time, dose: 121.0 mg/kg/injection, schedule: Q01DX001 (ip), vehicle: saline with Tween-80, higher T/C = longer survival): 10 of 10 on day 11
- survivor count (T/C endpoint: median survival time, dose: 275.0 mg/kg/injection, schedule: Q01DX001 (ip), vehicle: saline with Tween-80, higher T/C = longer survival): 10 of 10 on day 11
- survivor count (T/C endpoint: median survival time, dose: 412.0 mg/kg/injection, schedule: Q01DX001 (ip), vehicle: saline with Tween-80, higher T/C = longer survival): 9 of 10 on day 11
- survivor count (T/C endpoint: median survival time, dose: 508.0 mg/kg/injection, schedule: Q01DX001 (ip), vehicle: saline with Tween-80, higher T/C = longer survival): 7 of 10 on day 11

SMILES: COc1ccc(C[C@H](N)C(=O)NC2C(CO)OC(n3cnc4c(N(C)C)ncnc43)C2O)cc1 (stereo partly drawn)
- survivor count (T/C endpoint: median survival time, dose: 8.0 mg/kg/injection, schedule: Q01DX009 (ip), vehicle: saline, higher T/C = longer survival): 10 of 10
- survivor count (T/C endpoint: median survival time, dose: 16.0 mg/kg/injection, schedule: Q01DX009 (ip), vehicle: saline, higher T/C = longer survival): 10 of 10
- survivor count (T/C endpoint: median survival time, dose: 256.0 mg/kg/injection, schedule: Q01DX009 (ip), vehicle: saline, higher T/C = longer survival): 0 of 10

SMILES: O=[N+]([O-])c1ccc([I+]c2ccccc2)cc1
- survivor count [2]: 10 of 10
- survivor count [3]: 8 of 10
- survivor count [1]: 4 of 10

SMILES: CC1=C2C(=C[C@@](C)(CO)[C@@H]2O)C(=O)[C@](C)(O)C12CC2
- survivor count (T/C endpoint: mean tumor weight, dose: 0.9 mg/kg/injection, schedule: Q01DX011 (ip), vehicle: saline, higher T/C = larger tumour): 0 of 6
- survivor count (T/C endpoint: mean tumor weight, dose: 1.3 mg/kg/injection, schedule: Q01DX011 (ip), vehicle: saline, higher T/C = larger tumour): 0 of 6
- survivor count (T/C endpoint: mean tumor weight, dose: 2.0 mg/kg/injection, schedule: Q01DX011 (ip), vehicle: saline, higher T/C = larger tumour): 0 of 6

SMILES: O=C(NC(Cc1ccccc1)C(=O)CCl)OCc1ccccc1 (stereo not drawn)
- survivor count (T/C endpoint: median survival time, dose: 25.0 mg/kg/injection, schedule: Q01DX009 (ip), vehicle: saline with Tween-80, higher T/C = longer survival): 10 of 10
- survivor count (T/C endpoint: median survival time, dose: 50.0 mg/kg/injection, schedule: Q01DX009 (ip), vehicle: saline with Tween-80, higher T/C = longer survival): 9 of 10
- survivor count (T/C endpoint: median survival time, dose: 100.0 mg/kg/injection, schedule: Q01DX009 (ip), vehicle: saline with Tween-80, higher T/C = longer survival): 7 of 10

SMILES: CC1(c2ccc(N(CCCl)CCCl)cc2)NC(=O)NC1=O (stereo not drawn)
- survivor count (T/C endpoint: median survival time, dose: 6.25 mg/kg/injection, schedule: Q01DX009 (ip), vehicle: Klucel (hydroxypropylcellulose) (HPC), higher T/C = longer survival): 6 of 6

SMILES: O=c1ccc2ccccc2o1
- survivor count (T/C endpoint: mean tumor weight, dose: 250.0 mg/kg/injection, schedule: Q01DX011 (ip), vehicle: carboxymethylcellulose (CMC), higher T/C = larger tumour): 0 of 6
- survivor count (T/C endpoint: mean tumor weight, dose: 375.0 mg/kg/injection, schedule: Q01DX011 (ip), vehicle: carboxymethylcellulose (CMC), higher T/C = larger tumour): 0 of 6

SMILES: COc1cc(NS(C)(=O)=O)ccc1Nc1c2ccccc2nc2c(C)cccc12
- T/C (T/C endpoint: median survival time, dose: 2.5 mg/kg/injection, schedule: Q01DX009 (ip), vehicle: Klucel (hydroxypropylcellulose) (HPC), higher T/C = longer survival): 125 % of control
- survivor count (T/C endpoint: median survival time, dose: 10.0 mg/kg/injection, schedule: Q01DX009 (ip), vehicle: Klucel (hydroxypropylcellulose) (HPC), higher T/C = longer survival): 10 of 10
- survivor count (T/C endpoint: median survival time, dose: 20.0 mg/kg/injection, schedule: Q01DX009 (ip), vehicle: Klucel (hydroxypropylcellulose) (HPC), higher T/C = longer survival): 10 of 10

SMILES: S=C(N=Nc1ccccc1)NNc1ccccc1
- survivor count (T/C endpoint: mean tumor weight, dose: 65.0 mg/kg/injection, schedule: Q01DX011 (ip), vehicle: carboxymethylcellulose (CMC), higher T/C = larger tumour): 0 of 6
- survivor count (T/C endpoint: mean tumor weight, dose: 100.0 mg/kg/injection, schedule: Q01DX011 (ip), vehicle: carboxymethylcellulose (CMC), higher T/C = larger tumour): 1 of 6
- survivor count (T/C endpoint: mean tumor weight, dose: 150.0 mg/kg/injection, schedule: Q01DX011 (ip), vehicle: carboxymethylcellulose (CMC), higher T/C = larger tumour): 0 of 6

SMILES: CN(C)[C@@H]1C(=O)C(C(N)=O)=C(O)[C@]2(O)C(=O)C3C(=O)c4c(O)ccc(Cl)c4[C@](C)(O)[C@H]3C[C@@H]12 (stereo partly drawn)
- survivor count [3]: 10 of 10
- survivor count [1]: 9 of 10
- survivor count [4]: 7 of 10

SMILES: NC(=O)c1[nH]nc(C2OC(CO)C(O)C2O)c1O (stereo not drawn)
- T/C (T/C endpoint: median survival time, dose: 1.0 mg/kg/injection, schedule: Q04DX003 (iv), vehicle: saline, higher T/C = longer survival): 148 % of control
- T/C (T/C endpoint: median survival time, dose: 3.0 mg/kg/injection, schedule: Q04DX003 (iv), vehicle: saline, higher T/C = longer survival): 129 % of control
- T/C (T/C endpoint: median survival time, dose: 9.0 mg/kg/injection, schedule: Q04DX003 (iv), vehicle: saline, higher T/C = longer survival): 138 % of control

SMILES: Nc1nc(SCc2ccccc2)c2ncn(C3CCCC3)c2n1
- survivor count (T/C endpoint: mean tumor weight, dose: 900.0 mg/kg/injection, schedule: Q01DX011 (ip), vehicle: other, higher T/C = larger tumour): 2 of 6

SMILES: C1CC[N-]CC1.C1CC[N-]CC1.C1CC[N-]CC1.[Cl][Rh]([Cl])[Cl]
- survivor count (T/C endpoint: median survival time, dose: 2.0 mg/kg/injection, schedule: Q01DX009 (ip), vehicle: saline, higher T/C = longer survival): 10 of 10
- survivor count (T/C endpoint: median survival time, dose: 128.0 mg/kg/injection, schedule: Q01DX009 (ip), vehicle: saline, higher T/C = longer survival): 3 of 10

SMILES: COC(=O)C[C@](O)(CCC(C)(C)O)C(=O)O[C@@H]1C(OC)=C[C@]23CCCN2CCc2cc4c(cc2[C@H]13)OCO4
- T/C (T/C endpoint: mean tumor weight, dose: 1.0 mg/kg/injection, schedule: Q01DX011 (ip), vehicle: saline, evaluated on day 12, higher T/C = larger tumour): 130 % of control [8 of 10 alive]
- survivor count (T/C endpoint: mean tumor weight, dose: 4.0 mg/kg/injection, schedule: Q01DX011 (ip), vehicle: saline, higher T/C = larger tumour): 4 of 10

SMILES: CN(C)C(=S)N=Nc1c(O)[nH]c2ccccc12
- T/C (T/C endpoint: mean tumor weight, dose: 4.4 mg/kg/injection, schedule: Q01DX011 (ip), vehicle: carboxymethylcellulose (CMC), evaluated on day 12, higher T/C = larger tumour): 133 % of control
- survivor count (T/C endpoint: mean tumor weight, dose: 60.0 mg/kg/injection, schedule: Q01DX011 (ip), vehicle: carboxymethylcellulose (CMC), higher T/C = larger tumour): 1 of 7
- survivor count (T/C endpoint: mean tumor weight, dose: 120.0 mg/kg/injection, schedule: Q01DX011 (ip), vehicle: carboxymethylcellulose (CMC), higher T/C = larger tumour): 0 of 7
- survivor count (T/C endpoint: mean tumor weight, dose: 240.0 mg/kg/injection, schedule: Q01DX011 (ip), vehicle: carboxymethylcellulose (CMC), higher T/C = larger tumour): 0 of 7

SMILES: O=C1C=CC(=Nc2ccc(O)c3ncccc23)c2cccnc21
- survivor count (T/C endpoint: mean tumor weight, dose: 100.0 mg/kg/injection, schedule: Q01DX011 (ip), vehicle: saline, higher T/C = larger tumour): 0 of 6
- survivor count (T/C endpoint: mean tumor weight, dose: 200.0 mg/kg/injection, schedule: Q01DX011 (ip), vehicle: saline, higher T/C = larger tumour): 0 of 6

SMILES: CCCCCCCCCCCCCS
- T/C (T/C endpoint: mean tumor weight, dose: 44.0 mg/kg/injection, schedule: Q01DX011 (ip), vehicle: saline, evaluated on day 12, higher T/C = larger tumour): 127 % of control

SMILES: Cc1cc(N)c2cc(NC(=O)CCCCCCCCC(=O)Nc3ccc4nc(C)cc(N)c4c3)ccc2n1
- T/C (T/C endpoint: mean tumor weight, dose: 25.0 mg/kg/injection, schedule: Q01DX011 (ip), vehicle: other, evaluated on day 12, higher T/C = larger tumour): 130 % of control
- survivor count (T/C endpoint: median survival time, dose: 0.38 mg/kg/injection, schedule: Q01DX009 (ip), vehicle: Klucel (hydroxypropylcellulose) (HPC), higher T/C = longer survival): 9 of 10
- survivor count (T/C endpoint: median survival time, dose: 1.56 mg/kg/injection, schedule: Q01DX009 (ip), vehicle: Klucel (hydroxypropylcellulose) (HPC), higher T/C = longer survival): 10 of 10
- survivor count [2]: 10 of 10
- survivor count [1]: 1 of 10
- survivor count [4]: 0 of 10

SMILES: CCc1ccc(NC(=O)N(CCCl)N=O)cc1
- survivor count (T/C endpoint: median survival time, dose: 3.8 mg/kg/injection, schedule: Q01DX009 (ip), vehicle: Klucel (hydroxypropylcellulose) (HPC), higher T/C = longer survival): 10 of 10
- survivor count (T/C endpoint: median survival time, dose: 30.0 mg/kg/injection, schedule: Q01DX009 (ip), vehicle: Klucel (hydroxypropylcellulose) (HPC), higher T/C = longer survival): 10 of 10

SMILES: NCC(O)c1ccc(O)c(O)c1 (stereo not drawn)
- survivor count (T/C endpoint: mean tumor weight, dose: 20.0 mg/kg/injection, schedule: Q01DX011 (ip), vehicle: saline, higher T/C = larger tumour): 2 of 6

SMILES: N=C(N)N
- T/C (T/C endpoint: mean tumor weight, dose: 50.0 mg/kg/injection, schedule: Q01DX011 (ip), vehicle: saline, evaluated on day 12, higher T/C = larger tumour): 134 % of control
- survivor count (T/C endpoint: mean tumor weight, dose: 400.0 mg/kg/injection, schedule: Q01DX011 (ip), vehicle: saline, higher T/C = larger tumour): 1 of 6
